Measurements from article PMC8814028.
Results are given in words; binding and its absence hold for the method and conditions named. In cells and extracts the contact can be indirect. Some entries that bind do so weakly or less than the wild type.

Target: T1, β-catenin (mouse (endogenous in cerebral cortex)), Q02248
T1 chain: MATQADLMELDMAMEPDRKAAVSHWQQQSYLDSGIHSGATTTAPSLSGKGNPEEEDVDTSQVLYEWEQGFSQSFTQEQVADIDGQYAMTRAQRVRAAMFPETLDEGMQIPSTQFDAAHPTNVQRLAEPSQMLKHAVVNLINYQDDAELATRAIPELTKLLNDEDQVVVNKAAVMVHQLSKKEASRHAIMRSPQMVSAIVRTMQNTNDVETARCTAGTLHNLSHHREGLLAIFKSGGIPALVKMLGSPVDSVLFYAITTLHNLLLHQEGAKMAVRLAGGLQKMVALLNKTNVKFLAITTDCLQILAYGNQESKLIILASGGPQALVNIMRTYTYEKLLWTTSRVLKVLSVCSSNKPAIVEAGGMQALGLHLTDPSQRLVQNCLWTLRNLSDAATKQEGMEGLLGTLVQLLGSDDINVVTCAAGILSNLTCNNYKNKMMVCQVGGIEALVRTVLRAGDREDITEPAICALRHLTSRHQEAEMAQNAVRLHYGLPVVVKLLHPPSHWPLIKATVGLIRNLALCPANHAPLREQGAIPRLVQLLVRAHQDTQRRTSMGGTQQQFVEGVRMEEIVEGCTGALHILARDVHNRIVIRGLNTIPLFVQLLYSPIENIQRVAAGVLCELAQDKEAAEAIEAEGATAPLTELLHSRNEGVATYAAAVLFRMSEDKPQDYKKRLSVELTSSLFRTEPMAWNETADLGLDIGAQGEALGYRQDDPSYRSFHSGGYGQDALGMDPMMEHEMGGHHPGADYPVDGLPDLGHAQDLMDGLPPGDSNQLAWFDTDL
Experiment: co-IP; lysates of mice cerebral cortex (500 μg) incubated with 20 μg β-catenin antibody overnight at 4 °C, protein G-agarose, washed with cold PBS, blotted for TCF4; mouse normal IgG as negative control; mice: sham or MCAO, with or without LiCl and LY294002
Conditions: remark: other sources report otherwise

binding: binds
B1: transcription factor TCF4, Q924A0 1-459 (protein)
chain: MPQLNGGGGDDLGANDELISFKDEGEQEEKNSENSSAERDLADVKSSLVNESETNQDSSSDSEAERRPPPRSESFRDKSRESLEEAAKRQDGGLFKGPPYPGYPFIMIPDLTSPYLPNGSLSPTARTYLQMKWPLLDVQAGSLQSRQTLKDARSPSPAHIVSNKVPVVQHPHHVHPLTPLITYSNEHFTPGNPPPHLPADVDPKTGIPRPPHPPDISPYYPLSPGTVGQIPHPLGWLVPQQGQPVYPITTGGFRHPYPTALTVNASMSRFPPHMVPPHHTLHTTGIPHPAIVTPTVKQESSQSDVGSLHSSKHQDSKKEEEKKKPHIKKPLNAFMLYMKEMRAKVVAECTLKESAAINQILGRRWHALSREEQAKYYELARKERQLHMQLYPGWSARDNYGKKKKRKRDKQPGETNEHSECFLNPCLSLPPITDLSAPKKCRARFGLDQQNNWCGPCSL
